Reference: PubChem BioAssay AID720504 (National Center for Advancing Translational Sciences (NCATS), 2013)
About 10,000 (2.8%) of roughly 360,000 compounds were called active. This list was built around the results that the source calls inconclusive (neither active nor inactive); the mix of calls is not that of the screen. Calls come from the whole dose curve; as a rule, active = well fitted inhibition curve with a large enough effect; inconclusive = small, poorly fitted or top-dose-only effect; inactive = flat fitted curve, though single readings scatter. Potencies beside an inconclusive call are fits to weak or partial responses and may not hold up.
% is set by controls: 0 for no effect and ±100 for the full control effect; potency is the fitted concentration of half-maximal effect.
Note: nearly all actives have a fitted effect of over 65% in size.
Throughout, for max response, negative = inhibition: series mostly up to about 57 µM.

Amino acid sequences for entries named in this document (tags omitted).
UniProt P53350, whole entry, looked up: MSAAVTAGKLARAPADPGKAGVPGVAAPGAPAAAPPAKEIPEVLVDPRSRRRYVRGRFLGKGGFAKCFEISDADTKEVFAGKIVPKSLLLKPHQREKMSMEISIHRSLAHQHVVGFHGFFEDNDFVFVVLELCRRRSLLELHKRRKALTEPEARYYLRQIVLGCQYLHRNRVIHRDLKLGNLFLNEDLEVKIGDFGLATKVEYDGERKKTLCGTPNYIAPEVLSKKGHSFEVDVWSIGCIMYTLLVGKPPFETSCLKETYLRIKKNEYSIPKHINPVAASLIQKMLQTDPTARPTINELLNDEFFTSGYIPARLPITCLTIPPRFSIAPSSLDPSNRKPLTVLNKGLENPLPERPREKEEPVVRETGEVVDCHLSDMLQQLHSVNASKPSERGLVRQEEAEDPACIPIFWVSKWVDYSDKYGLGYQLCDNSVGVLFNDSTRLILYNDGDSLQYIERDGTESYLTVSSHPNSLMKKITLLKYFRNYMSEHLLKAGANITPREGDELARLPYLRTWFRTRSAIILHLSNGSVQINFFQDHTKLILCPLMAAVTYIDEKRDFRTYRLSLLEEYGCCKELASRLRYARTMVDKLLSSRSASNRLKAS

These compounds were tested against Serine/threonine-protein kinase PLK1 (Homo sapiens) (UniProt P53350) (assay: qHTS for Inhibitors of PLK1-PDB (polo-like kinase 1 - polo-box domain): Primary Screen). Conditions: Plk1 PBD binding of FITC phosphopeptide, fluorescence polarization.
With `COc1ccc(NC2CCCN(C(=O)CSc3ccccc3)C2)cc1` (centres undefined) the max response, negative = inhibition was inactive: -4.68%.
`Cc1ccc(-n2nc3ccc(NC(=O)C(C)C)cc3n2)cc1` was tested, and the Potency was inconclusive: 33.6 µM [inhibitor, partial curve].
In the case of `CCCCC[C@@H]1[C@H]2[C@H]3C(=O)N(c4ccccc4)C(=O)[C@H]3CC(=O)[C@H]2[C@H](c2ccccc2)N1S(=O)(=O)c1ccc(C)cc1`, the max response, negative = inhibition is reported as inactive: 2.6%.
In the case of `CNC(=O)c1cn(-c2ccc(Cl)cc2)c(=O)c2ccccc12`, the Potency is reported as inconclusive: 15 µM [inhibitor, partial curve].
In the case of `Cc1nn(CCCC(=O)Nc2sc3c(c2C#N)CCC3)c(C)c1[N+](=O)[O-]`, the Potency is reported as active: 29.9 µM.
`CCN(CC)C(=O)CSc1nc2c(sc(=S)n2-c2ccccc2)c(=O)n1-c1ccc(OC)cc1OC` was tested, and the Potency was active: 2.99 µM.
With `CSCCC(NS(=O)(=O)c1ccc(C)cc1)C(=O)N1CCN(S(=O)(=O)c2ccc(F)cc2)CC1` (centres undefined) the max response, negative = inhibition was inactive: -4.82%.
For `CCCC(=O)Nc1nnc(S(=O)(=O)N(CC)c2ccc(OC)cc2)s1`, the max response, negative = inhibition was inactive: 5.41%.
For `Cc1cc(Br)cn2c(Cc3cccc(Cl)c3)c(-c3ccco3)nc12`, the Potency was inconclusive: 26.7 µM [inhibitor, single point].
`Nc1ncnc2nc(SCCC(=O)O)[nH]c12` was tested, and the Potency was inconclusive: 8.44 µM [inhibitor, single point].
For `O=C(/C(=C/O)N=Nc1ccc(Cl)cc1)c1ccncc1`, the Potency was inconclusive: 26.7 µM [inhibitor, partial curve].
With `CCCCNC(=O)C[C@@H]1C[C@@]2(C(=O)OCC)CCCC=C2N(Cc2ccc3c(c2)OCO3)C1=O` the max response, negative = inhibition was inactive: 1.78%.
`O=C(Cn1cc2c(n1)CCCCC2)NCc1ccccc1` was tested, and the Potency was active: 29.9 µM.
For `c1ccc(CCc2nn3c(C4COc5ccccc5O4)nnc3s2)cc1` (centres undefined), the Potency was active: 23.8 µM.
For `CCc1ccc(NC(=O)CSc2ccc(-c3ccco3)nn2)cc1`, the Potency was active: 18.9 µM.
For `CSc1nc(O)c(C(c2ccc(C)cc2)c2c(O)nc(SC)[nH]c2=O)c(=O)[nH]1`, the Potency was inconclusive: 26.7 µM [inhibitor, partial curve].
For `c1ccc(CCn2nnc3ccccc32)cc1`, the Potency was active: 21.2 µM.
`Cc1ccccc1CN1C(=O)CS/C1=N/N=C/c1ccco1` was tested, and the max response, negative = inhibition was inconclusive: -32.2% [inhibitor].
For `Cn1ncc2c(c(SCc3ccc(Cl)cc3Cl)nn2C)c1=O`, the Potency was active: 11.9 µM.
`C=CCn1c(=O)c2ccccc2n2c(SCC(=O)Nc3sc(C)c(CC)c3C(=O)OCC)nnc12` was tested, and the max response, negative = inhibition was inactive: -4.92%.
For `CC1=NN(c2ccc(C)c(C)c2)C(=O)/C1=C/c1ccc2c(c1)n(C)c(=O)n2C`, the Potency was inconclusive: 7.52 µM [inhibitor, full curve, poor fit].
For `O=C(CSc1cccc2cccnc12)Nc1ccccc1F`, the Potency was inconclusive: 29.9 µM [inhibitor, single point].
For `Cc1cc(C)c(S(=O)(=O)/N=C2\C=C(NS(=O)(=O)c3ccccc3)C(=O)c3ccccc32)c(C)c1`, the Potency was active: 23.8 µM.
For `COc1ccc(C(=S)N2CCOCC2)cc1OC(=O)c1cc(OC)c(OC)c(OC)c1`, the Potency was active: 26.7 µM.
For `COc1cc(-c2csc(CCn3nc(C)cc3C)n2)cc(OC)c1OC`, the Potency was inconclusive: 33.6 µM [inhibitor, partial curve].
In the case of `O=[N+]([O-])c1ccccc1CSc1ccccn1`, the Potency is reported as inconclusive: 29.9 µM [inhibitor, partial curve].
`CNc1nc(OC)nc(N(C#N)CN2C(=O)c3ccccc3S2(=O)=O)n1` was tested, and the Potency was inconclusive: 21.2 µM [inhibitor, single point].
For `O=S(=O)(NC1CC2CCC1C2)c1ccc(Br)s1` (centres undefined), the Potency was active: 3.36 µM.
`Cc1ccc(C(=O)n2nnc3ccccc32)cc1[N+](=O)[O-]` was tested, and the Potency was inconclusive: 2.12 µM [inhibitor, full curve].
`Cc1ccc(S(=O)(=O)Nc2cc3c(C(=O)O)c(C)oc3c3ccccc23)c(C)c1` was tested, and the Potency was inconclusive: 29.9 µM [inhibitor, partial curve].
In the case of `CCN(C(=O)CN1C(=O)S/C(=C\c2ccc(Cl)cc2)C1=O)C1CCS(=O)(=O)C1` (centres undefined), the Potency is reported as inconclusive: 21.2 µM [inhibitor, partial curve].
For `Cc1cccc(OCc2nnc(SCC(=O)Nc3cccc(C(=O)N4CCOCC4)c3)o2)c1C`, the max response, negative = inhibition was inactive: 2.4%.
In the case of `Cc1ccc2c(c1)sc[n+]2Cc1ccccc1`, the Potency is reported as active: 2.99 µM.
In the case of `CCCN1CCC(=O)N([C@H](CSc2ccccc2)c2ccccc2)CC1`, the Potency is reported as inconclusive: 23.8 µM [inhibitor, single point].
In the case of `NC(=S)N/N=C/c1ccccc1[N+](=O)[O-]`, the Potency is reported as inconclusive: 42.3 µM [inhibitor, single point].
For `CCOc1cc(C2C(C#N)=C(N)SC(N)=C2C#N)ccc1OCCN1CCOCC1`, the Potency was active: 26.7 µM.
For `O=C(COc1ccc(F)cc1F)N1CCCCCCC1`, the Potency was inconclusive: 26.7 µM [inhibitor, single point].
For `CCCCCC(=O)Nc1cc(S(=O)(=O)O)cc2cc(S(=O)(=O)O)cc(O)c12`, the Potency was active: 5.97 µM.
`O=C(c1ccc(Cl)cc1)c1ccc(CN2C(=O)c3ccccc3C2=O)o1` was tested, and the max response, negative = inhibition was inactive: 1.93%.
In the case of `C/C(=N/NC(=O)CN(c1ccccc1)S(=O)(=O)c1ccccc1)c1ccccc1O`, the max response, negative = inhibition is reported as inactive: -4.1%.
`Cc1ccc(Cl)cc1NC(=O)CSc1sc2c(O)cc(=O)[nH]c2c1C#N` was tested, and the Potency was inconclusive: 23.8 µM [inhibitor, partial curve].
In the case of `O=C1C(Cl)=C(N2CCOCC2)C(=O)N1c1ccc(Br)cc1`, the Potency is reported as inconclusive: 29.9 µM [inhibitor, partial curve].
For `CCOC(=O)N1CCN(Cc2c(O)ccc3ccccc23)CC1`, the Potency was active: 10.6 µM.
`N#CC1=C(N)Oc2n[nH]c(-c3cccs3)c2C1c1cccs1` (centres undefined) was tested, and the Potency was active: 23.8 µM.
In the case of `COc1cc(NC(=O)CCNS(=O)(=O)c2cc(Br)cnc2N)cc(OC)c1`, the max response, negative = inhibition is reported as inactive: -15.4%.
In the case of `c1ccc2c(C[n+]3csc4ccccc43)cccc2c1`, the Potency is reported as inconclusive: 2.38 µM [inhibitor, partial curve].
In the case of `O=C(O)c1ccc(CN(Cc2ccccc2)S(=O)(=O)c2ccc(Cl)cc2)cc1`, the Potency is reported as active: 23.8 µM.
In the case of `CCc1nnc(SCC(=O)Nc2nccs2)n1CC`, the max response, negative = inhibition is reported as inactive: -7.82%.
For `Cc1ccc(OCc2ccoc2C(=O)O)cc1C`, the Potency was inconclusive: 26.7 µM [inhibitor, single point].
In the case of `O=C(Nc1ccc(-c2cn3c(n2)SCC3)cc1)c1ccco1`, the Potency is reported as inconclusive: 37.7 µM [inhibitor, partial curve, poor fit].
For `N#Cc1ccc2sn(-c3ccccc3)c(=O)c2c1`, the Potency was active: 2.67 µM.
For `CC(=O)Nc1ccc(NC(=O)CSc2nnc(C)c(=O)n2N)cc1`, the Potency was inconclusive: 26.7 µM [inhibitor, single point].
In the case of `CC(=O)NNC(=O)c1csc(-c2csc(C)n2)n1`, the max response, negative = inhibition is reported as inactive: -10.1%.
In the case of `O=C1NC[C@@H](CCCCN2C[C@H](Cc3ccc(O)cc3)N(CCC3CCCCC3)C(=O)C2=O)N(CCc2ccc(O)cc2)C1=O`, the max response, negative = inhibition is reported as inactive: 5.17%.
`Cc1c(N2C(=O)/C(=C3\C(=O)N(CC(=O)O)c4ccccc43)SC2=S)c(=O)n(-c2ccccc2)n1C` was tested, and the Potency was inconclusive: 37.7 µM [inhibitor, partial curve].
In the case of `COc1cc(/C=C/C(=O)OCC(=O)N2CCOCC2)ccc1OCC#N`, the Potency is reported as active: 26.7 µM.
With `CC1=NOC(=O)/C1=C\c1ccc(-c2ccc(Br)cc2)o1` the Potency was active: 0.597 µM.
In the case of `Cc1nccn1S(=O)(=O)c1cc([N+](=O)[O-])ccc1Cl`, the Potency is reported as inconclusive: 29.9 µM [inhibitor, partial curve].
In the case of `COc1ccccc1OCCCOc1ccc(C)cc1Br`, the max response, negative = inhibition is reported as inactive: 1.38%.
`CCCN(Cc1cc2cc(OC)ccc2[nH]c1=O)C(=O)c1ccco1` was tested, and the Potency was inconclusive: 18.9 µM [inhibitor, partial curve].
With `CCc1cccc(NC(=O)CCNS(=O)(=O)c2ccc3c(c2)oc(=O)n3C)c1` the max response, negative = inhibition was inactive: 4.33%.
With `NS(=O)(=O)c1ccc(CCNC(=O)CSc2ccc([N+](=O)[O-])cc2)cc1` the Potency was inconclusive: 18.9 µM [inhibitor, single point].
With `Cc1ccc2c(c1)NC(=O)C(CC(=O)NCCCN1CCCC1=O)O2` (centres undefined) the Potency was active: 29.9 µM.
For `Cc1noc(/C=C/c2ccc(-c3ccccc3Cl)o2)c1[N+](=O)[O-]`, the Potency was inconclusive: 37.7 µM [inhibitor, single point].
`CC(=O)Nc1ccc(S(=O)(=O)N2CCN(C(=O)Cc3ccccc3)CC2)cc1` was tested, and the Potency was active: 26.7 µM.
With `C=CCOc1ccc(C=NNc2ccc(S(=O)(=O)Nc3ccccc3C(=O)O)cc2[N+](=O)[O-])cc1OC` the Potency was inconclusive: 37.7 µM [inhibitor, single point].
In the case of `FC(F)(F)C1CC(c2cccs2)Nc2ncnn21` (centres undefined), the max response, negative = inhibition is reported as inconclusive: -30.6% [inhibitor].
For `COC(=O)Cc1sc(-c2ccccn2)nc1-c1ccccc1`, the Potency was active: 4.74 µM.
In the case of `COc1ccc(-c2csc(Nc3ccc(S(N)(=O)=O)cc3)n2)cc1`, the max response, negative = inhibition is reported as inconclusive: -30.7% [inhibitor].
In the case of `CCOc1ccc(/C(CCC(=O)O)=N/NC(=S)NCCc2ccccc2)cc1`, the Potency is reported as inconclusive: 23.8 µM [inhibitor, single point].
For `CC(=O)c1ccc(OCCCC(=O)NC2CCCCC2C)cc1` (centres undefined), the max response, negative = inhibition was inactive: -13.3%.
`O=C(Cc1ccc(Cl)cc1)NN1C(=O)c2ccccc2C1=O` was tested, and the Potency was active: 26.7 µM.
For `COCCCN(C(=O)CCSc1ccc(F)cc1)c1c(N)n(Cc2ccccc2)c(=O)[nH]c1=O`, the Potency was inconclusive: 37.7 µM [inhibitor, single point].
For `C#CCn1c(=NC(=O)c2ccco2)sc2cccc(Cl)c21`, the max response, negative = inhibition was inactive: -8.22%.
